Source: patent publication US8080115B2, “Method for the surface treatment of a metallic or fibrous material” (priority 2005, dated 2011)

Assays:
[1] = Properties of the film obtained from latex with added composition; conditions: 5.3% by weight added to latex
[2] = Brookfield viscosity of latex with added composition; conditions: 5.3% by weight added to latex, 20° C., 20 rpm

## CO[C@H]1CO[C@H]2[C@@H]1OC[C@H]2OC [Composition 5, dimethyl isosorbide]
[1]; DSC
  TG (glass transition temperature of the film): +1.6 °C
[1]; Haze-Gard Plus device
  HAZE: 8.9
[2]; 1 day
  VISC 1 (Brookfield viscosity of the latex at 1 day): 4.8 10^3 mPa·s
[2]; 7 days
  VISC 7 (Brookfield viscosity of the latex at 7 days): 4.8 10^3 mPa·s
